According to PubChem BioAssay AID248 (DTP/NCI, 2004):
The list shows only some results of the screen, not a fair sample: it is rich in T/C values a quarter to a half above the control, in often repeated tests (any T/C) and in doses without a T/C. Further doses and runs are listed elsewhere. T/C is the treated group as % of the vehicle group. Some doses have a count of surviving animals in place of a T/C: the source files T/C as zero there, which appears to mark a toxic dose or a test without result, not a measured value. Some survivor counts are full or nearly so, which does not show that the dose was tolerated: survival well below the control is almost never listed, so the zero probably covers shortened survival too. Survivors were counted at the toxicity check, usually on the fifth day, unless a day is given; later deaths do not show. Schedules are NCI's codes, read here as Q, the interval in days (D) or hours (H), X, the number of doses. Where survival is the endpoint, this PubChem deposit counts one and a half times the control or more as active, and values a quarter to a half above the control carry no call in these data; other NCI protocols may use other cut-offs. Some entries were tested several times; their values stand side by side, smallest first. Some T/C values carry the count of animals alive at the toxicity check (mostly the fifth day); where none is given, no animal had died by that day.

Tested on: L1210 leukemia ip in BDF1 mice, survival T/C
Experiment: NCI In Vivo Anticancer Drug Screen. Data for tumor model L1210 Leukemia (intraperitoneal) in B6D2F1 (BDF1) mice
Conditions: T/C endpoint: mean survival time, higher T/C = longer survival
[1] = dose: 31.0 mg/kg/injection, schedule: Q01DX015 (ip), vehicle: carboxymethylcellulose (CMC)

In the case of Nc1nc(=S)c2ncn(C3CC(O)C(CO)O3)c2[nH]1 (stereo not drawn), the T/C (dose: 0.16 mg/kg/injection, schedule: Q03HX024 (ip), vehicle: saline) is reported as 147 % of control, the T/C (dose: 0.31 mg/kg/injection, schedule: Q01DX015 (ip), vehicle: carboxymethylcellulose (CMC)) is reported as 145 % of control and the T/C (dose: 0.32 mg/kg/injection, schedule: Q03HX008 (ip), vehicle: saline) is reported as 140 % of control. For the same compound, the T/C (dose: 0.32 mg/kg/injection, schedule: Q03HX024 (ip), vehicle: saline) was 144 % of control, the T/C (dose: 0.6 mg/kg/injection, schedule: Q01DX009 (ip), vehicle: saline with Tween-80) was 145 % of control and the T/C (dose: 0.62 mg/kg/injection, schedule: Q01DX005 (ip), vehicle: clinical formulation) was 144 % of control. For the same compound, the T/C (dose: 0.62 mg/kg/injection, schedule: Q01DX005 (ip), vehicle: saline) was 140 % of control, the T/C (dose: 0.62 mg/kg/injection, schedule: Q01DX005 (ip), vehicle: water) was 144 % of control and the T/C (dose: 0.62 mg/kg/injection, schedule: Q03HX016 (ip), vehicle: saline) was 145 % of control. The T/C (dose: 0.63 mg/kg/injection, schedule: Q01DX015 (ip), vehicle: carboxymethylcellulose (CMC)) was 129 % of control, the T/C (dose: 0.63 mg/kg/injection, schedule: Q03HX016 (ip), vehicle: saline) was 146 % of control [9 of 10 alive] and the T/C (dose: 1.25 mg/kg/injection, schedule: Q01DX015 (ip), vehicle: carboxymethylcellulose (CMC)) was 149 % of control. For the same compound, the T/C (dose: 1.25 mg/kg/injection, schedule: Q04DX003 (ip), vehicle: saline) was 135 % of control, the T/C (dose: 1.35 mg/kg/injection, schedule: Q01DX009 (ip), vehicle: saline with Tween-80) was 147 % of control and the T/C (dose: 2.0 mg/kg/injection, schedule: Q01DX009 (ip), vehicle: saline with Tween-80) was 132 % of control. For the same compound, the T/C (dose: 2.5 mg/kg/injection, schedule: Q03HX024 (ip), vehicle: saline) was 125 % of control, the T/C (dose: 3.0 mg/kg/injection, schedule: Q01DX009 (ip), vehicle: saline with Tween-80) was 146 % of control and the T/C (dose: 3.75 mg/kg/injection, schedule: Q01DX015 (ip), vehicle: carboxymethylcellulose (CMC)) was 127 % of control. The T/C (dose: 5.0 mg/kg/injection, schedule: Q01DX001 (ip), vehicle: saline) was 128 % of control, the T/C (dose: 5.0 mg/kg/injection, schedule: Q01DX002 (ip), vehicle: Klucel (hydroxypropylcellulose) (HPC)) was 139 % of control and the T/C (dose: 5.0 mg/kg/injection, schedule: Q03HX008 (ip), vehicle: saline) was 145 % of control. The T/C (dose: 5.0 mg/kg/injection, schedule: Q03HX016 (ip), vehicle: saline) was 133 % of control, the T/C (dose: 5.0 mg/kg/injection, schedule: Q04DX003 (ip), vehicle: Klucel (hydroxypropylcellulose) (HPC)) was 136 % of control and the T/C (dose: 5.0 mg/kg/injection, schedule: Q08DX002 (ip), vehicle: saline) was 141 % of control. For the same compound, the T/C (dose: 5.4 mg/kg/injection, schedule: Q01DX015 (ip), vehicle: carboxymethylcellulose (CMC)) was 137 % of control, the T/C (dose: 6.25 mg/kg/injection, schedule: Q01DX009 (ip), vehicle: saline) was 145 % of control and the T/C (dose: 7.1 mg/kg/injection, schedule: Q01DX015 (ip), vehicle: carboxymethylcellulose (CMC)) was 137 % of control. For the same compound, the T/C (dose: 9.5 mg/kg/injection, schedule: Q01DX015 (ip), vehicle: carboxymethylcellulose (CMC)) was 134 % of control, the T/C (dose: 10.0 mg/kg/injection, schedule: Q01DX001 (ip), vehicle: saline) was 135 % of control and the T/C (dose: 10.0 mg/kg/injection, schedule: Q01DX002 (ip), vehicle: Klucel (hydroxypropylcellulose) (HPC)) was 138 % of control. The survivor count (dose: 10.0 mg/kg/injection, schedule: Q03HX016 (ip), vehicle: saline) was 10 of 10, the T/C (dose: 12.5 mg/kg/injection, schedule: Q01DX005 (ip), vehicle: saline) was 142 and 144 % of control and the T/C (dose: 12.5 mg/kg/injection, schedule: Q01DX009 (ip), vehicle: saline) was 145 % of control. The T/C (dose: 12.65 mg/kg/injection, schedule: Q01DX015 (ip), vehicle: carboxymethylcellulose (CMC)) was 146 % of control, the T/C (dose: 16.85 mg/kg/injection, schedule: Q01DX015 (ip), vehicle: carboxymethylcellulose (CMC)) was 137 % of control and the T/C (dose: 20.0 mg/kg/injection, schedule: Q01DX001 (ip), vehicle: saline) was 141 % of control. For the same compound, the T/C (dose: 20.0 mg/kg/injection, schedule: Q04DX003 (ip), vehicle: Klucel (hydroxypropylcellulose) (HPC)) was 132 % of control, the T/C (dose: 22.5 mg/kg/injection, schedule: Q01DX015 (ip), vehicle: carboxymethylcellulose (CMC)) was 132 % of control and the T/C (dose: 24.0 mg/kg/injection, schedule: Q01DX005 (oral), vehicle: saline) was 134 % of control. The T/C (dose: 30.0 mg/kg/injection, schedule: Q01DX015 (ip), vehicle: carboxymethylcellulose (CMC)) was 140 % of control, the T/C (dose: 30.0 mg/kg/injection, schedule: Q04DX003 (oral), vehicle: saline) was 136 % of control and the T/C [1] was 138 % of control. For the same compound, the survivor count [1] was 6 of 6.
